Experiment: 1H NMR titration, binding to carbohydrate substrate
Description: The binding of receptor compound 3 to carbohydrate substrates, in aqueous solution, was studied initially by ^1H NMR titrations at 298 K. The saccharides used as test substrates are shown in FIG. 7.
Titrations were performed on a Varian™ 500 MHz spectrometer. Solutions of reducing carbohydrates were prepared in D2O and kept overnight at room temperature before the titration experiments, in order to ensure equilibration of anomers. In a typical titration, aliquots of carbohydrate solution were added to receptor solution (DSS as internal standard) and the ^1H NMR spectra were recorded. Variations in chemical shifts were entered into a specifically written non-linear least squares curve-fitting program implemented within Excel™. Assuming 1:1 stoichiometry, the program calculates Ka and the limiting change in chemical shift Δδ. The assumption is supported by the generally good fits between observed and calculated data.

## O=C(O)CCOCC(COCCC(=O)O)(COCCC(=O)O)NC(=O)c1cc2cc(c1)C(=O)NCc1c3ccccc3c(c3ccccc13)CNC(=O)c1cc(cc(C(=O)NC(COCCC(=O)O)(COCCC(=O)O)COCCC(=O)O)c1)C(=O)NCc1c3ccccc3c(c3ccccc13)CNC2=O [Compound 3]
  downfield shift of signal of externally-directed protons F on addition of glucose: ~0.15 ppm
Limiting value
  Δδ, downfield movement of signal of internally-directed protons E on addition of glucose: ~0.8 ppm

Reference: patent US9610365B2, “Anthracenyl-tetralactam macrocycles and their use in detecting a target saccharide” (UNIVERSITY OF BRISTOL, priority 2012, dated 2017)
